No constants are given. Whether binding was seen depends on the method and setting. In cells and extracts the contact can be indirect. For some assays here: Binding calls can cover weak binding; strength is not graded here. For some assays here: Tags and fused reporters may be left off the sequences shown.
Legend:
GST–14-3-3β (mouse) = molecular target: T1, GST–14-3-3β (mouse) (UniProt Q9CQV8); assay: pull-down; GST–14-3-3β on Glutathione Sepharose 4B; EGFP-tagged proteins in HeLa cell lysates; immunoblotting; only the target purified
T1 sequence: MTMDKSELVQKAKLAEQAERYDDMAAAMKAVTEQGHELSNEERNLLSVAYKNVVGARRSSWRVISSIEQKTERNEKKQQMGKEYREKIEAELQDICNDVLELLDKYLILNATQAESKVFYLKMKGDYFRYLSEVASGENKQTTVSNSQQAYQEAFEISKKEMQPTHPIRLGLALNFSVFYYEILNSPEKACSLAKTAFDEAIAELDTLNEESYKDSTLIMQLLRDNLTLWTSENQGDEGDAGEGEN

KGN–14-3-3β (mouse) = molecular target: T2, KGN–14-3-3β (mouse) (UniProt Q9CQV8); assay: split reporter; BiFC (Kusabira-Green) between KGN–14-3-3β and KGC–A/B/C/DA-Raf in living MDCK cells, 48 h after transfection, 37°C
T2 sequence: T1 sequence

Substance	binding (GST–14-3-3β (mouse))	binding (KGN–14-3-3β (mouse))
EGFP–DA-Raf (mouse)	no binding	–
KGC–DA-Raf (mouse)	–	binds weakly

From article PMC12540644
